The list shows a part of the results. Values are raw readings; no control value is given beside them.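 First-pass screen: polymyxin B was added at a level that permeabilizes the Salmonella outer membrane while sparing the inner membrane. DMSO wells, with and without polymyxin B, defined maximum growth. Because plates differed from one another, each plate's data were ranked separately and the compounds with the lowest OD600 were carried forward as hits.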
System: Salmonella enterica serovar Typhimurium SL1344
Assay: bacterial growth OD600 after 18 h with compound and polymyxin B; higher = more bacterial growth (less inhibition)
Settings: 50 µM, Mueller-Hinton broth

Structure (SMILES) | bacterial growth OD600 (polymyxin B 1 µg/mL) | bacterial growth OD600 (polymyxin B 0.75 µg/mL)
CCn1nc(C)c(CNC(=O)c2ccc(OC3CCN(C(=O)COC)CC3)cc2)c1C | 0.985 | –
CCC1CN(Cc2ccc(O)c(Cl)c2)Cc2cc(OC)ccc2O1 (stereo not given) | – | 0.009
CCn1cc(CN2C[C@H]3OC(=O)N(CCCc4ccc(F)cc4)[C@H]3C2)cn1 | – | 0.816
O=C(c1ccc(-c2ccccc2)cc1)N1CCC2(CC1)CC2C(=O)N1CCN(c2ccccn2)CC1 (stereo not given) | – | 0.866
CC(=O)NCCC(=O)N1CCC(C2CCN(Cc3ccc(Cl)cc3)C2)CC1 (stereo not given) | – | 0.993
C=CCCC(=O)N1CCC2(CCCN(Cc3cccc(F)c3F)C2)C1 (stereo not given) | 1 | –
CCCS(=O)(=O)NCc1cccnc1Oc1ccc(C)nc1 | 0.921 | –
Cc1ccccc1CC(C1CCN(C(=O)c2ccc(F)cc2F)CC1)N(C)C(=O)Cn1cccn1 (stereo not given) | – | 0.826
COc1ccccc1CCNC(=O)Cc1ccc(N2CCC(NC3Cc4ccccc4C3)CC2)cc1 | – | 0.785
O=C1CCC(CCC(=O)N2CCC(Oc3ccccc3Cl)CC2)(Cc2ccc(F)cc2)N1 (stereo not given) | – | 0.076
CN(Cc1ccccc1)C1(C(=O)NCCn2cccn2)Cc2ccccc2C1 | 0.003 | –
Cc1cc(CN(C)C(=O)c2cccc(OC3CCN(C4CCCC4)CC3)c2)n[nH]1 | 0.908 | –
COc1ccc(F)c(CN2CCCC(O)(CN3CCNC(=O)C3(C)C)C2=O)c1 (stereo not given) | 0.913 | –
CN(Cc1ccncn1)C(=O)c1cc(Cn2ccc3ccccc32)[nH]n1 | – | 0.82
COc1cccc(C(=O)NCC2CCCN(Cc3ccc(C)s3)C2)c1OC (stereo not given) | 0.852 | –
COCCC(=O)N1CCC(C(=O)Nc2ccc(Oc3ccccc3)nc2)CC1 | 0.792 | –
CCOC(=O)N1CCC(N2CCCC(C(=O)c3cccc(OC)c3)C2)CC1 (stereo not given) | – | 0.766
Cc1ccn(CC(=O)N2CCCC(C(=O)c3ccc4c5c(cccc35)CC4)C2)n1 (stereo not given) | 0.584 | –
O=C1O[C@@H]2CN(Cc3ccsc3)C[C@@H]2N1C1CCCC1 | – | 0.763
O=C(NCC1CC1)C1CCCN(C2CCN(C3Cc4ccccc4C3)CC2)C1 (stereo not given) | – | 0.797
Cc1ccc(CN(C)C(=O)C2CCN(c3nc(C)c4ccc(S(C)(=O)=O)cc4n3)CC2)cc1 | – | 0.378
O=C(NCCc1ccncc1)c1coc(COc2ccc(F)cc2Cl)n1 | 0.977 | –
COc1cc(C)c(CNC(C)c2cnc(-c3ccncc3)nc2C)cc1C (stereo not given) | – | 0.772
CCN(CC)C(=O)C1CCCN(Cc2ccc3c(c2)CN(Cc2cc(OC)ccc2OC)CCO3)C1 (stereo not given) | – | 0.819
CC1(C)CC(CCNC(=O)CCC2(Cc3cccs3)CCC(=O)N2)(c2ccccc2)CCO1 (stereo not given) | – | 0.765
CCCn1cc([C@@H]2C[C@H]3CN(Cc4ccccc4OC)C(=O)[C@]34CCCN24)c(C)n1 | – | 0.874
CCC1(C2CCN(C(=O)c3ccccc3C(F)(F)F)CC2)NC(=O)N(Cc2ccccn2)C1=O (stereo not given) | – | 0.833
COc1ccccc1C(=O)Nc1ccnn1C1CCN(Cc2cc(C(C)C)[nH]n2)CC1 | 1.25 | –
C[C@@H]1CN(C2(C(=O)NC(C3CC3)C3CC3)Cc3ccccc3C2)C[C@H](C)O1 | 1.06 | –
O=C1CCCN1CCC(=O)N1CCOC(Cc2cccc(C(F)(F)F)c2)C1 (stereo not given) | – | 0.856

Some values from the list.
bacterial growth OD600 (polymyxin B 1 µg/mL), Cc1ccn(CC(=O)N2CCCC(C(=O)c3ccc4c5c(cccc35)CC4)C2)n1 (stereo not given) is entered as 0.584
bacterial growth OD600 (polymyxin B 0.75 µg/mL), CC(=O)NCCC(=O)N1CCC(C2CCN(Cc3ccc(Cl)cc3)C2)CC1 (stereo not given) is entered as 0.993
